The list shows a part of the results. Shown are side measurements of this screen, not its main read-out; they come without a call. Most of these compounds were active or inconclusive in the main read-out, so they are no random draw. Potencies come from curve fits of mixed quality, noted in brackets.
Experiment: qHTS Assay for Lipid Storage Modulators in Drosophila S3 Cells;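 as to cell number change: cells counted by Cell Tracker Red CMTPX staining in the red channel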
Conditions: BODIPY lipid droplet fluorescence, 18-24 h; for cell number change: measured here: cell count max response, cells fed with added oleic acid
Outline: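 Drosophila S3 cells got compounds at several concentrations plus oleic acid (400 uM solution). Laser-scanning cytometry with 488 nm excitation read lipid droplets at 500-530 nm and cells at 575-640 nm. Percent activity was relative to 20 uM Triacsin C.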

[1] = measured here: cell number channel AC50, cells fed with added oleic acid
[2] = measured here: lipid fluorescence (Fed channel) AC50, cells fed with added oleic acid

SMILES | cell number change [%] | AC50 [1] | AC50 [2]
CCCCC(CC)COC1(c2ccccc2)OC(=O)c2ccccc21 (stereo not given) | 12.3 | 3.26 µM [rising, single point] | 20.6 µM [falling, single point]
Cc1c(NC(=O)C(C)OC(=O)c2ncc(Cl)c(Cl)c2Cl)c(=O)n(-c2ccccc2)n1C (stereo not given) | -29.8 | 2.06 µM [falling, partial curve, poor fit] | 3.66 µM [falling, single point]
C=CCn1c(C)cc(C(=O)CN2C(=O)c3ccccc3S2(=O)=O)c1C | 46.3 | 10.3 µM [rising, partial curve, poor fit] | 
Cn1c(C(=O)N2CCOCC2)cnc1Sc1ncc(C(F)(F)F)cc1Cl | 31.5 | 1.03 µM [rising, full curve, poor fit] | 
Cc1ccc(C(=O)CSc2n[nH]c(-c3ccco3)n2)cc1C | 2.58 |  | 16.4 µM [rising, single point]
CCc1ccc(NC(=O)[C@H](NC(=O)[C@@H]2Cc3ccccc3CN2)c2ccccc2)cc1 | 20 | 0.164 µM [rising, full curve, poor fit] | 29.1 µM [rising, single point]
CN(C)C(=S)NC(=NCc1ccc([N+](=O)[O-])cc1)c1ccccc1 | -19.1 |  | 29.1 µM [falling, single point]
O=C(CCNS(=O)(=O)c1ccc(Br)s1)NCc1ccccc1 | 7.74 |  | 0.00461 µM [falling, full curve, poor fit]
CCOc1ccc(C(=O)Nc2nnc(NC(=S)Nc3ccccc3)s2)cc1 | -23.2 |  | 0.092 µM [falling, full curve, poor fit]
Cc1ccc2[nH]c(CNC(=O)c3ccc(F)cc3)cc2c1 | 1.65 |  | 0.58 µM [rising, single point]
CCCc1cc(=O)[nH]c(SCc2cc(C(=O)OC)c(C)o2)n1 | -11.3 |  | 0.103 µM [rising, full curve, poor fit]
CSc1sccc1/C=N/O | -50.8 | 25.9 µM [falling, single point] | 29.1 µM [falling, single point]
CCc1cc2c(=O)n(CC(C)C)cnc2s1 | 15.1 |  | 1.84 µM [falling, partial curve, poor fit]
Fc1ccc(-c2cnc3n2CCCCC3)cc1 |  | 6.51 µM [rising, single point] | 6.51 µM [rising, single point]
CCOC(=O)C1=C(COC(=O)[C@H](C)NS(=O)(=O)c2ccc(NC(C)=O)cc2)NC(=O)NC1C (stereo not given in full) | -23.5 |  | 32.6 µM [falling, single point]
O=C(C[n+]1ccc(-c2nnc3n2CCCCC3)cc1)c1ccc(Cl)cc1 | -11.7 |  | 
CCc1ccc(Oc2coc3cc(OCC(=O)Nc4cc(C)ccc4C)ccc3c2=O)cc1 | -31.8 | 1.64 µM [falling, full curve] | 1.64 µM [falling, full curve]
O=C(CNC(=O)c1ccccc1)Oc1ccc([N+](=O)[O-])cc1 | 23.4 | 0.00411 µM [rising, full curve, poor fit] | 0.58 µM [rising, single point]

Gathered by group: the entries above with fluorine.
SMILES | cell number change [%] | AC50 [1] | AC50 [2]
Cn1c(C(=O)N2CCOCC2)cnc1Sc1ncc(C(F)(F)F)cc1Cl | 31.5 | 1.03 µM [rising, full curve, poor fit] | 
Cc1ccc2[nH]c(CNC(=O)c3ccc(F)cc3)cc2c1 | 1.65 |  | 0.58 µM [rising, single point]
Fc1ccc(-c2cnc3n2CCCCC3)cc1 |  | 6.51 µM [rising, single point] | 6.51 µM [rising, single point]

Going on with the list.

SMILES | cell number change [%] | AC50 [1] | AC50 [2]
CCc1ccc(NC(=O)c2c(C(=O)Nc3ccccc3)sc3nc(C)cc(=O)n23)cc1 | -67.8 | 2.06 µM [falling, partial curve] | 5.8 µM [falling, single point]
O=C(NCc1nnc(SCc2ccccc2)n1-c1ccccc1)C12CC3CC(CC(C3)C1)C2 | -20 |  | 18.4 µM [falling, single point]
CCOc1cc(CNCCO)cc(Br)c1OCc1cccs1 | -20.3 |  | 8.2 µM [falling, single point]
N#Cc1c(Sc2ncc(C(F)(F)F)cc2Cl)nsc1C/C=N\OCc1c(F)cccc1Cl | -17.2 |  | 29.1 µM [falling, single point]
COc1cc(C(=O)NCC(=O)NNC(=O)C2COc3ccccc3O2)cc(OC)c1OC (stereo not given) | -0.429 |  | 0.00461 µM [falling, full curve, poor fit]
CCC(C)NC(=O)CN(c1ccc(Cl)c(Cl)c1)S(C)(=O)=O (stereo not given) | -14.8 |  | 29.1 µM [falling, single point]
CCCC(=O)Nc1cc(=O)[nH]c2ncnn12 | -1.5 |  | 
Cc1cc(C(=O)OCC(=O)Nc2c(F)cccc2F)c(C)n1-c1ccccc1 | -35.1 |  | 
COC(=O)c1ccc(C)c(NC(=O)C2COc3ccccc3O2)c1 (stereo not given) | -14.8 |  | 2.06 µM [rising, full curve, poor fit]
Cc1cc2c(c(=O)n1CCCn1ccnc1)C(c1ccco1)C(C#N)=C(N)O2 (stereo not given) |  | 5.17 µM [rising, single point] | 5.17 µM [falling, single point]
Cc1cn(C2CC3OCC3O2)c(=O)[nH]c1=O (stereo not given) | -4.77 |  | 29.1 µM [falling, single point]
COc1ccc(CC(=O)Nc2ccc(C(=O)Nc3nccs3)cc2)cc1OC | 5.41 |  | 9.2 µM [rising, single point]
Cn1c(=O)c2[nH]c(N=Nc3ccc(N)cc3N)nc2n(C)c1=O | -4.27 | 1.16 µM [falling, full curve] | 
Cc1ccc(C)c(S(=O)(=O)N2CCCOC2CNC(=O)C(=O)NCCN2CCOCC2)c1 (stereo not given) | 18.3 |  | 25.9 µM [rising, single point]
O=C(Nc1ccc(-n2ccnc2P(=O)(O)c2ccccc2)cc1)c1ccccc1Cl | -12.9 | 0.00411 µM [falling, full curve, poor fit] | 1.84 µM [falling, partial curve]
CN(C(=O)c1ccc(COc2ccccc2Br)o1)c1ccccc1 | 17.5 |  | 0.58 µM [falling, single point]
CCOC(=O)/C=C1\SCC(=O)N1CC(=O)Nc1ccccc1OC(F)F | 3.89 |  | 0.411 µM [rising, partial curve, poor fit]

— PubChem BioAssay AID2685 (National Center for Advancing Translational Sciences (NCATS), 2010)
